Experimental data: PubChem BioAssay AID488900 (National Center for Advancing Translational Sciences (NCATS), 2010)
Inconclusive results, whose numbers are uncertain, are shown with a selection of clear calls. Potencies of inconclusive entries are doubtful fits and often do not repeat. Active and inactive are the calls of the source. Calls come from the whole dose curve; as a rule, active = well fitted curve in the direction sought with a large enough effect; inconclusive = small, poorly fitted or top-dose-only effect, or effect the other way, or another doubt; inactive = no such curve, though single readings can be large or run the other way.

assay: Secondary Assay for lipid storage modulators: Hela cell LDSA assay for probe SAR; settings: HeLa lipid droplet accumulation, BODIPY 493/503 cytometry, oleate-fed; activity change, negative = less lipid storage: at 46.1 µM (top of the series)
From the text: NIH Molecular Libraries Probe Production Centers Network [MLPCN] NIH Chemical Genomics Center [NCGC] MLPCN Grant: 1 R03 MH085686-01 Assay Submitter (PI): Beller, Mathias; Max-Planck-Institut fur Biophysikalische Chemie NCGC Assay Overview: Storing lipids as a reservoir for energy or the anabolism of elementary metabolites is a common feature of probably all cells and is conserved from bacteria to humans. The universal cellular lipid storage organelle is the so-called lipid storage droplet (LD). Although ubiquitous, LDs share a simple structure composed of a hydrophobic core that harbors the storage lipids, which is shielded by a droplet-specific phospholipid monolayer to which proteins are attached. The current model of LD biogenesis involves an incorporation of the lipid core into the membrane leaflets of the endoplasmic reticulum (ER) followed by a subsequent budding-like maturation of a LD, which ultimately pinches off. Once released, LD volume can increase by localized lipogenesis or fusion of existing droplet. Storage lipids are re-mobilized enzymatically by lipase activity. Lipase regulation in the adipocyte is heavily studied and involves multiple components including catecholamine signaling, the LD-associated proteins Perilipin and comparative gene identification (CGI-58) and at least two lipases named hormone sensitive lipase (HSL) and adipocyte triglyceride lipase (ATGL). LD regulation outside of the adipocyte is poorly understood and only few components are known. However, there is an urgent need to learn more about ectopic fat depots as mislocalized storage of lipids, for example in the liver or muscle, is an eminent health problem associated with insulin resistance or the metabolic syndrome.
NCGC Assay Protocol Summary: The assay was performed with Hela cells, using an oleic acid feeding protocol similar to the S3 assay. We dispensed 4 uL of cells to give 700 cells/well into Greiner bio-one 1,536-well plates (black walled, clear bottom). Triacsin C (Sigma-Aldrich T-4540), an inhibitor of long-chain fatty acyl CoA synthetase that blocks synthesis of triglycerides, was used as a positive control for lipid under-storage using a final concentration of 20 uM. The orexin antagonist, SB408124 - previously identified to stimulate lipid over-storage, was used as a positive control for lipid over-storage using a final concentration of 20 uM. A total of 23 nL of compound solution of different concentrations were transferred to the assay plates using a Kalypsys pin tool equipped with a 1,536-pin array containing 10-nL slotted pins (FP1S10, 0.457-mm diameter, 50.8 mm long; V&P Scientific). One microliter of oleic acid was added (400 uM final concentration), and the plate was lidded with stainless steel rubber gasket lined lids containing pinholes. After 18-24 h incubation at […] and 95% humidity, 4 uL of the dyes BODIPY 493/503 (Molecular Probes) and the Cell Tracker Red CMTPX dye (Molecular Probes) were added to the wells to stain lipid droplets and enumerate cell number, respectively. Fluorescence was detected by excitation of the fluorophores with a 488-nm laser on an Acumen Explorer (TTP Lab Tech). The total intensity in channel 2 (500-530 nm) reflected lipid droplet accumulation. Cells were detected using channel 3 (575-640 nm) with 5-um width and 100-um depth filters. The ratio of the number of objects in PMT channel 2 over the number of objects in PMT channel 3 was also calculated. Percent activity was computed relative to an internal control (100% inhibited lipid droplet deposition due to the presence of 20 uM Triacsin C), which was added to 32 wells/plate.

| Compound | activity change, negative = less lipid storage | Potency |
| --- | --- | --- |
| CN(C)CC(=O)NC1CCCc2c1cnn2-c1ccc(F)cc1F (stereo not drawn) | inactive: 21% |  |
| CCn1c(C(=O)NCCc2ccc(OC)c(OC)c2)cc2sc(Cl)cc21 |  | inconclusive: 0.771 µM [activator, single point] |
| CCOc1ccc(CCNC(=O)c2cc3sccc3[nH]2)cc1OCC | inactive: 8.64% |  |
| CC(C)(C)OC(=O)NC1CCCc2c1cnn2-c1ccc(F)cc1F (stereo not drawn) |  | inconclusive: 14.1 µM [activator, partial curve, poor fit] |
| CCCn1c(-c2ccc(OC)cc2)cnc1SCC(=O)Nc1nc(C)c(C)s1 | inconclusive: 181% [activator] |  |
| COc1ccc(CCNC(=O)c2cc3sccc3n2Cc2ccccc2)cc1OC | inactive: -0% |  |
| O=C(NC1CCCc2c1cnn2-c1ccc(F)cc1F)c1ccccc1 (stereo not drawn) | inactive: -2.47% |  |
| CCOc1ccc(CCNC(=O)c2cc3sccc3n2CC)cc1OCC |  | inconclusive: 0.025 µM [falling, full curve] |
| COc1ccc(CCNC(=O)c2cc3sccc3n2Cc2ccc(Cl)cc2)cc1OC | inactive: -0% [at 30.7 µM] |  |
| CCOc1ccc(CCNC(=O)c2cc3sccc3n2C)cc1OCC |  | inconclusive: 0.0125 µM [falling, full curve, poor fit] |
| CC(C)(C)OC(=O)N1CCCCC1C(=O)NC1CCCc2c1cnn2-c1ccc(F)cc1F (stereo not drawn) |  | inconclusive: 25 µM [activator, partial curve, poor fit] |
| COc1ccc(-c2cnc(SCC(=O)Nc3nc(C)cs3)n2-c2ccccc2)cc1 |  | inconclusive: 8.88 µM [activator, full curve] |
| O=C(NC1CCCc2c1cnn2-c1ccc(F)cc1F)c1ccc(C(=O)c2ccccc2)cc1 (stereo not drawn) |  | inconclusive: 17.7 µM [activator, partial curve] |

In another format: entries from further up
Compound	activity change, negative = less lipid storage	Potency
CC(C)(C)OC(=O)NC1CCCc2c1cnn2-c1ccc(F)cc1F (stereo not drawn)		inconclusive: 14.1 µM [activator, partial curve, poor fit]
CCOc1ccc(CCNC(=O)c2cc3sccc3n2CC)cc1OCC		inconclusive: 0.025 µM [falling, full curve]
